Test results from patent US20220040180A1, “KITS AND METHODS FOR TREATING CANCERS” (Spectrum Pharmaceuticals, Inc., priority 2018, published 2022).
For at least one compound, name, drawing or mass did not settle the structure.

Assay: Dynamic vapor sorption (DVS) hygroscopicity
Type: physicochemical
Settings: 25° C.
Method: Dynamic Vapor Sorption (DVS) analysis was conducted on the DVS advantage (Surface measurement system, United Kingdom) analyzer at 25° C. and relative humidity of 0-90%.
10 mg of sample was placed in the wire mesh steam sorption balance pan and attached to the DVS-advantage dynamic vapor adsorption balance by the Surface Measurement Systems. […] After the completion of the sorption cycle, the sample was dried using the same procedure, during which the relative humidity was returned to a relative humidity […] all the time. The change in weight during the sorption/desorption cycle (repetition of 3 times) was recorded to determine the hygroscopicity of the sample.

Structure (SMILES) | hygroscopic degree (DVS) (relative humidity range of 10-50%, listed as crystalline anhydrous Form I) | hygroscopic degree (DVS) (relative humidity range of 10-90%)
C=CC(=O)N1CCC(Oc2cc3c(Nc4ccc(Cl)c(Cl)c4F)ncnc3cc2OC)CC1 [Example 2, 1-(4-(4-(3,4-dichloro-2-fluorophenylamino)-7-methoxyquinazolin-6-yloxy)piperidin-1-yl)prop-2-en-1-one] | about 0.5% | –
C=CC(=O)N1CCC(Oc2cc3c(Nc4ccc(Cl)c(Cl)c4F)ncnc3cc2OC)CC1 [Example 6, 1-(4-(4-(3,4-dichloro-2-fluorophenylamino)-7-methoxyquinazolin-6-yloxy)piperidin-1-yl)prop-2-en-1-one] | – | very high
